{"source": "paper PMC12206130", "molecular_target": "T1, GST-Myc3-Nrf2 (nuclear factor erythroid 2-related factor 2) (UniProt Q16236)", "T1 sequence": "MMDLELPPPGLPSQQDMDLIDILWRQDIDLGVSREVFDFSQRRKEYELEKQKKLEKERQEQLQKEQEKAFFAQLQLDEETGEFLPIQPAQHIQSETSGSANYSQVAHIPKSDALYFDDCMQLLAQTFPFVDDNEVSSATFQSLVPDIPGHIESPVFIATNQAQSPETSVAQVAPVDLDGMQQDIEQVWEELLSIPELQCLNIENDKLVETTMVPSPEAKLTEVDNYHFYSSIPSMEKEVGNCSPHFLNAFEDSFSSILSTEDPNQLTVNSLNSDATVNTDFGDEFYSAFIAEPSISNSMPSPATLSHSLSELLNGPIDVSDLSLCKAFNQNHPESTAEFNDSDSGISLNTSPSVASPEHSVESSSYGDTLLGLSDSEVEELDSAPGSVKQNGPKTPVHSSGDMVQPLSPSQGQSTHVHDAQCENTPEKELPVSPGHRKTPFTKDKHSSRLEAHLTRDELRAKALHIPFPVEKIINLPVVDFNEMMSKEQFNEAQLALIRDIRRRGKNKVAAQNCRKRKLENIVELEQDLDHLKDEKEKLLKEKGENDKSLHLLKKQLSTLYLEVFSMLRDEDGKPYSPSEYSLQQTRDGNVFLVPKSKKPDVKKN", "experiment": "pull-down; GST pull-down; 10 μg of each recombinant protein mixed and rotated overnight in pull-down buffer (20 mM HEPES-NaOH pH 7.5, 150 mM NaCl, 0.5% Nonidet P-40, 2 mM EDTA, 10% glycerol, 1 mM DTT, protease inhibitors); captured on Glutathione Sepharose 4B, washed four times; western blot with anti-GST and anti-Flag; both purified", "note": "No constants are given. Whether binding was seen depends on the method and setting. Some entries that bind do so weakly or less than the wild type. Tags and fused reporters may be left off the sequences shown."}
{"substance": "His-Flag-p53 (from UniProt P04637 1-393)", "values": [{"measurement": "binding", "result": "binds"}]}
